Test results reported in PMC12243203.
No constants are given. Whether binding was seen depends on the method and setting. Binding seen in cells or lysates may run through a third protein. These calls come from enrichment with a bait or labelling near it, and not all partners need be listed.

Biological target: recombinant GST-tag EtSERPIN1 protein (Eimeria tenella)
Assay: affinity purification with mass spectrometry; rGST-EtSERPIN1 on glutathione resin, mixed with membrane protein from the chicken caecum epithelium at 4 °C for 2 h; eluted with 10 mmol/L reduced glutathione, pH 8.0; SDS-PAGE, silver stain, bands excised, MS; GST-tag as control; only the target purified

B1: chicken annexin A5 (GgANXA5), endogenous (protein, UniProt P17153 1-321)
chain: MAKYTRGTVTAFSPFDARADAEALRKAMKGMGTDEETILKILTSRNNAQRQEIASAFKTLFGRDLVDDLKSELTGKFETLMVSLMRPARIFDAHALKHAIKGAGTNEKVLTEILASRTPAEVQNIKQVYMQEYEANLEDKITGETSGHFQRLLVVLLQANRDPDGRVDEALVEKDAQVLFRAGELKWGTDEETFITILGTRSVSHLRRVFDKYMTISGFQIEETIDRETSGDLEKLLLAVVKCIRSVPAYFAETLYYSMKGAGTDDDTLIRVMVSRSEIDLLDIRHEFRKNFAKSLYQMIQKDTSGDYRKALLLLCGGDDE
binding: binds
